This is an account of results in the supplement of paper PMC10849652.

Protein sequences, listed by entry. Tags and fused reporters are not part of them. Lines headed by an entry give the natural chain unless they say otherwise; changes in a name come on top.
UniProt Q8NBZ7: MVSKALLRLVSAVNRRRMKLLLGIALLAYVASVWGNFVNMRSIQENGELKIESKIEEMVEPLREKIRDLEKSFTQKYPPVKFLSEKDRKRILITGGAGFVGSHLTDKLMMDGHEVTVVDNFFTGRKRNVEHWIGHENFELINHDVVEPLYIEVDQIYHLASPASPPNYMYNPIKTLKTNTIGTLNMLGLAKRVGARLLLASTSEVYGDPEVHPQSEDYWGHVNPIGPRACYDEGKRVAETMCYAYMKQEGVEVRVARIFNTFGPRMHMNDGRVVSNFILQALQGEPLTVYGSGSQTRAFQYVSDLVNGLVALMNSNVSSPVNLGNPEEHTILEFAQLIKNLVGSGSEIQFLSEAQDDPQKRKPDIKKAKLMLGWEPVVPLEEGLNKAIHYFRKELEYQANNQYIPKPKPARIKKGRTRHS
UniProt Q16739: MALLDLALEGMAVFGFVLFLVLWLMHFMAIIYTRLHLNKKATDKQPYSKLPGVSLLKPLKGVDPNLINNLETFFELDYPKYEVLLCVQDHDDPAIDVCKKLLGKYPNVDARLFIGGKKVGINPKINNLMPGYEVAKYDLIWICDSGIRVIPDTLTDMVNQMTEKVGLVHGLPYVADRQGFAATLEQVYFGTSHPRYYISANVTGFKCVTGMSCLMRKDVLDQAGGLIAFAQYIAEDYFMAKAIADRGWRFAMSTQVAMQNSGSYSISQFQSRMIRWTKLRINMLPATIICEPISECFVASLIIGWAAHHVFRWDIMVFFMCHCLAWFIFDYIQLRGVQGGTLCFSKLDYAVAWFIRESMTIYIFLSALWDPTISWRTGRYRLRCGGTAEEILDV
UniProt Q70CQ2: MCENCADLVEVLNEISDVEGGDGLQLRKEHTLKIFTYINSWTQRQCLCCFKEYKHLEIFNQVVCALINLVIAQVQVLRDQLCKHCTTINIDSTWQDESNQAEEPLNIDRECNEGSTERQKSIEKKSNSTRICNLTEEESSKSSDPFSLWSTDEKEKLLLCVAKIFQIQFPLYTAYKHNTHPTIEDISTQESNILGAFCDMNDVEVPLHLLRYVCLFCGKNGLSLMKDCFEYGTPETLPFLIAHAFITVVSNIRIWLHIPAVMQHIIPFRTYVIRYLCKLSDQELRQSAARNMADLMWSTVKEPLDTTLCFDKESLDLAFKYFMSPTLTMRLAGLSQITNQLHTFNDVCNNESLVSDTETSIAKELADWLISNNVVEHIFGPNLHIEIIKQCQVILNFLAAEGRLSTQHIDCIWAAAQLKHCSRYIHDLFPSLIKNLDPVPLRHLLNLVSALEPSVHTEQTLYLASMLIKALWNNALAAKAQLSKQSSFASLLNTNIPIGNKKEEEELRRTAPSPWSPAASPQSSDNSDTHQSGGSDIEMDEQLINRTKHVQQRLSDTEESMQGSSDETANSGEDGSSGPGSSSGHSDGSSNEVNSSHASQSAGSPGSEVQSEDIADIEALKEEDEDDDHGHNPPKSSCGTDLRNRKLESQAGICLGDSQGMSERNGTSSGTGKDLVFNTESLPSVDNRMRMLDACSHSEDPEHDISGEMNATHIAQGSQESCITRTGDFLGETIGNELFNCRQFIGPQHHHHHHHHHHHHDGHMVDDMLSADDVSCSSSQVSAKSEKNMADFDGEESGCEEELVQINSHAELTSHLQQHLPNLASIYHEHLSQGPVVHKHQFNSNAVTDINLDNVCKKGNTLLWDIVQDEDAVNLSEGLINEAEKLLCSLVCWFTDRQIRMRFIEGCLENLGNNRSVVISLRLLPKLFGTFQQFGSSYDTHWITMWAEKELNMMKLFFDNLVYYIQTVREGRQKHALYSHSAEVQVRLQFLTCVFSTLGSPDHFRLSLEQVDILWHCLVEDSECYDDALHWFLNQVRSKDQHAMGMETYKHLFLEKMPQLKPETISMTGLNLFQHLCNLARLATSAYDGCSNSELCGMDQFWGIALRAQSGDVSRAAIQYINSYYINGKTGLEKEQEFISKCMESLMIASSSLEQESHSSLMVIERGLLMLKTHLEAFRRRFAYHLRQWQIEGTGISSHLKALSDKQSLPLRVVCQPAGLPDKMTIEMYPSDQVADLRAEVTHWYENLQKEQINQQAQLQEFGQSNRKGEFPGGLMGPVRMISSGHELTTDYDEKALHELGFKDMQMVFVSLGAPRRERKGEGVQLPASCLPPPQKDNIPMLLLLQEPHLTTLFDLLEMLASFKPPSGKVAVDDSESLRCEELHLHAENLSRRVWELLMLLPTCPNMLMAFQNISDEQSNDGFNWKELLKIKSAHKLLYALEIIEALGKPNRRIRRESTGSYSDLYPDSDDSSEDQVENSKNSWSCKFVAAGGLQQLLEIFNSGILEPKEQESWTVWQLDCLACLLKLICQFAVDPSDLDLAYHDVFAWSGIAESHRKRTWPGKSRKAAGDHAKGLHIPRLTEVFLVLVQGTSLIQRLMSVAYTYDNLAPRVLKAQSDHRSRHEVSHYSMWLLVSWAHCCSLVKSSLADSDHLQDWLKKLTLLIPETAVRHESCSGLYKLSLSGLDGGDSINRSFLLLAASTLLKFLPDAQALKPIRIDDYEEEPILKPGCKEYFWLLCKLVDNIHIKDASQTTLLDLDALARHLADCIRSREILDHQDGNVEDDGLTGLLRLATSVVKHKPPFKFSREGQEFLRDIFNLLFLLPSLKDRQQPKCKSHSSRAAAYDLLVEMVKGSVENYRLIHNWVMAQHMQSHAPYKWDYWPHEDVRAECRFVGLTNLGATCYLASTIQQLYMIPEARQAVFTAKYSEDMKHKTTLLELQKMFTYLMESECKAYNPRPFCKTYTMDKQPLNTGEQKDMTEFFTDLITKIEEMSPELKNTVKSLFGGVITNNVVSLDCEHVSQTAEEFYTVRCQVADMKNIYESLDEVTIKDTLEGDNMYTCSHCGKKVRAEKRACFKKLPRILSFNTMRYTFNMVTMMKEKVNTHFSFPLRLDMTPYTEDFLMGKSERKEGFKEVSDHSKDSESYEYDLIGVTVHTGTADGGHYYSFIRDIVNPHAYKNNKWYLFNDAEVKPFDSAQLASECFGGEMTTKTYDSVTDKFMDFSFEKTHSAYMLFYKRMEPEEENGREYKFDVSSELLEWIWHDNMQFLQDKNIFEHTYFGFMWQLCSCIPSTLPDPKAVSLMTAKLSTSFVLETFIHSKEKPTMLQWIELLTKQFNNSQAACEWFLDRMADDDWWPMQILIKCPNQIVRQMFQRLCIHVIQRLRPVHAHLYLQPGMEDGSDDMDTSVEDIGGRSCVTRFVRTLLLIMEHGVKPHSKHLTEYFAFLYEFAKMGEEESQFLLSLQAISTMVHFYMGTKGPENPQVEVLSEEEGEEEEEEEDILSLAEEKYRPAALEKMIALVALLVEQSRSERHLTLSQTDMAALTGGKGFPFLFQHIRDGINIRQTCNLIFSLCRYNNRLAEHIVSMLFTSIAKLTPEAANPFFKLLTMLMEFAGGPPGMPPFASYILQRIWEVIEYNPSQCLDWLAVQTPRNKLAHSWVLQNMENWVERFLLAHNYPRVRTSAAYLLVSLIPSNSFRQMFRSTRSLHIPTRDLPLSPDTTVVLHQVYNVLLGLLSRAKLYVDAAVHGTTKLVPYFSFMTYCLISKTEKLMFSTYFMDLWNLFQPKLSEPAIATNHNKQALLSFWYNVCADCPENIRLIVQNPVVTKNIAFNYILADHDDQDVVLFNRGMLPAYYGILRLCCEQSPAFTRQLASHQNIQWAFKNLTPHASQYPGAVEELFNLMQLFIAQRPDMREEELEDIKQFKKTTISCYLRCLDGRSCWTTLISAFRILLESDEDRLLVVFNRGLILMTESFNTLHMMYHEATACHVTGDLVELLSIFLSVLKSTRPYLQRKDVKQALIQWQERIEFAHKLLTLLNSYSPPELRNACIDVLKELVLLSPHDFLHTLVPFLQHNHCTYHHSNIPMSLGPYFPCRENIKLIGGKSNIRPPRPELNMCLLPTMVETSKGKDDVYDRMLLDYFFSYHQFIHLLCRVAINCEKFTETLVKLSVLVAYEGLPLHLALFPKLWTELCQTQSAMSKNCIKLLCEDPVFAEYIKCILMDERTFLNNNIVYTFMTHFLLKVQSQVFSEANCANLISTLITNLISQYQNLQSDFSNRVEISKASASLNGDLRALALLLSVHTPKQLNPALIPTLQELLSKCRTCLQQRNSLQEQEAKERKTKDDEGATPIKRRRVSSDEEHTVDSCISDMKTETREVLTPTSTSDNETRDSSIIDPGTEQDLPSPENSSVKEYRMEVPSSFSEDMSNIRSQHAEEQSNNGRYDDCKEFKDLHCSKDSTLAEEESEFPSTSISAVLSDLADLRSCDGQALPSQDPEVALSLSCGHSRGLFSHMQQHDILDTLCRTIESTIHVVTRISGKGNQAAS
UniProt Q9BRT2: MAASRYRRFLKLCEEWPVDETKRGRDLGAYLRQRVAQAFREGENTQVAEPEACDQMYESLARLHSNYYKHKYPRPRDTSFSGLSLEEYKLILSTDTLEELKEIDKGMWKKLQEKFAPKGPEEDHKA
UniProt Q9H1C4: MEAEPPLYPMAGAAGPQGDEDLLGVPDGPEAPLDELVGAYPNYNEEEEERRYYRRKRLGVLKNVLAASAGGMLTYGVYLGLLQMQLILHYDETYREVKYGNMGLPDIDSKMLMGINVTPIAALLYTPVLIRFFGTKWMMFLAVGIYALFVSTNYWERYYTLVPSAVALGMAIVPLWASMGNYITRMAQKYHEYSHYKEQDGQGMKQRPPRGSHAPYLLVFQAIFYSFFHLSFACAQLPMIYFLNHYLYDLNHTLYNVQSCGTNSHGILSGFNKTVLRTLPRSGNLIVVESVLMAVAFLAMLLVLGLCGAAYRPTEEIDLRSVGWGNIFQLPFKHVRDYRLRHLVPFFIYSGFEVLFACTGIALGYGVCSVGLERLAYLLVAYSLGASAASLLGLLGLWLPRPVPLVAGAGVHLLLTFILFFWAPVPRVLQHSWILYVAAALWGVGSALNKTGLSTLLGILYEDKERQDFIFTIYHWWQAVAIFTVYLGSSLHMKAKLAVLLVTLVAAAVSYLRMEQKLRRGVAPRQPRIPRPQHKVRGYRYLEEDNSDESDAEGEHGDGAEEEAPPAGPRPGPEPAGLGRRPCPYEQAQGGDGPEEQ
UniProt P06132: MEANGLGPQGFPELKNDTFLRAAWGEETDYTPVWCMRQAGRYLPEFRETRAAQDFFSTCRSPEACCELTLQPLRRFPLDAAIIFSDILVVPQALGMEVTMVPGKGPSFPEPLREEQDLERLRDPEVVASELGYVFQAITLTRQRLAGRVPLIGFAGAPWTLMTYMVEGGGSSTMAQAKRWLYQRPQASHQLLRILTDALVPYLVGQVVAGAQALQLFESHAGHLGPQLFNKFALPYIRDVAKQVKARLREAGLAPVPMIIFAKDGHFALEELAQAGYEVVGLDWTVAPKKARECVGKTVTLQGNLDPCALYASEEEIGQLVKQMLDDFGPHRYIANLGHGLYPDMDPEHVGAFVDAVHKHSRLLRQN
UniProt Q9Y5K5, whole entry, looked up: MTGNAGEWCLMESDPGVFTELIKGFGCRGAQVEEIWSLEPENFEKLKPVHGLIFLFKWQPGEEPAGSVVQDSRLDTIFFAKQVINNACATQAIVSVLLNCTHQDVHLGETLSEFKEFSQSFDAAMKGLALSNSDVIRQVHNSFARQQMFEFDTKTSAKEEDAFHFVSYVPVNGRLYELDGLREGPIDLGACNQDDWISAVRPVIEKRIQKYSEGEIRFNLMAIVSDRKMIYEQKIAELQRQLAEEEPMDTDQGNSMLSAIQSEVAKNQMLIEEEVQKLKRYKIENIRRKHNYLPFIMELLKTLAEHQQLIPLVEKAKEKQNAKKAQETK
UniProt Q92575: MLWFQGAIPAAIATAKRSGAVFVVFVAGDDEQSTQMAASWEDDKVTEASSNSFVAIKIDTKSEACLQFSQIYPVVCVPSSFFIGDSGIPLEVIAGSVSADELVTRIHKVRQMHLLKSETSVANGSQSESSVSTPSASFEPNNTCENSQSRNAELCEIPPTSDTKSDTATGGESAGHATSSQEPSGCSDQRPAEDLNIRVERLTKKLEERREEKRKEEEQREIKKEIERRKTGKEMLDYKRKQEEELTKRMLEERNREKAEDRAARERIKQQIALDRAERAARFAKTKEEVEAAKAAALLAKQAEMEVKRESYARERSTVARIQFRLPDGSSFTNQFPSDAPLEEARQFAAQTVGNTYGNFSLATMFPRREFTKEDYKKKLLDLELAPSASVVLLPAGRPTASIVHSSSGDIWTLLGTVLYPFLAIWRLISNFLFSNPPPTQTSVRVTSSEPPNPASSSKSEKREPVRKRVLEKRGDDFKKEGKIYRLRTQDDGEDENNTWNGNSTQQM
UniProt Q9BZX2: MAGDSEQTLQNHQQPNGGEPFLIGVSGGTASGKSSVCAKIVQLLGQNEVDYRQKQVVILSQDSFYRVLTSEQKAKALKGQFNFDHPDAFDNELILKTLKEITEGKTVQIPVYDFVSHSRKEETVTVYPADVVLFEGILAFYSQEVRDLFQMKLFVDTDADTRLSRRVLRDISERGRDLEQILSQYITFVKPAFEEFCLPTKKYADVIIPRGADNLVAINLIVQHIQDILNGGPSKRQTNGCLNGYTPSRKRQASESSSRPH

The other results are listed elsewhere or left out.

Compound in the test: C1=CC(=C(C=C1Cl)C2=NC3=NC=CN=C3C(=N2)NC4=CC=NC=C4)F
Nature of the test: log2 fold change, soluble protein after heating vs DMSO (PISA); higher = thermal stabilisation; K562 cells, 10 uM, 30 min; active = over 0.2 and 3.5 SD of the protein, either way, in both replicates (recomputed). The method, boiled down:
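K562 cells at 2×10^6 cells/mL were exposed to 10 μM compound for 30 min, then aliquots were heated for 3 min across 48°C-58°C, pooled, and extracted in PBS containing 0.5% NP-40 at 4°C. The supernatant after 21,000xg for 90 min was taken as soluble protein and measured by TMTpro 16plex LC-MS/MS with channel sums equalised. Thermal stability is reported relative to control samples, with values from duplicates. Fold changes are given on a log2 scale.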
For the target USP15 (UniProt Q9Y4E8), the log2 fold change is inactive: 0.08. The value for UXS1 isoform 2 (UniProt Q8NBZ7) was inactive: 0.019; that for UGCG (UniProt Q16739) was inactive: -0.105; that for USP34 (UniProt Q70CQ2) was inactive: 0.026. The value for UQCC2 (UniProt Q9BRT2) was inactive: 0.043. The value for UNC93B1 (UniProt Q9H1C4) was inactive: -0.032; that for UBR2 (UniProt Q8IWV8) was inactive: -0.108; that for URI1 (UniProt O94763) was inactive: -0.025. As to UXT isoform 2 (UniProt Q9UBK9), the log2 fold change is inactive: 0.078. The value for UROD (UniProt P06132) was inactive: -0.018; that for UCHL5 (UniProt Q9Y5K5) was inactive: 0.005; that for UCHL5 isoform 3 (UniProt Q9Y5K5) was inactive: 0.415. With UQCRFS1 (UniProt P47985), the log2 fold change is inactive: 0.11. Consider UBXN4 (UniProt Q92575), for which the log2 fold change is inactive: 0.035. With UCK2 (UniProt Q9BZX2), the log2 fold change is inactive: 0.062.
